Construct, isoform or probe ends are uncertain for at least one entry. At least one verdict was read from the data and is not stated in words by the source. For part of these data: Where a protein sequence is shown, tags need not be part of it.
Columns and labels:
[1] = system: RFS1 E138A (Walker B) + RIP1 (cShu subunit) + SWS1 (cShu subunit); test: EMSA
[2] = system: RFS1 K56A (Walker A) + RIP1 (cShu subunit) + SWS1 (cShu subunit); test: EMSA
[3] = target: T1, RAD51 (Caenorhabditis elegans) (UniProt Q95Q25); test: fluorescence; conditions: 2 mM ATP
T1 sequence (looked up, limits assumed): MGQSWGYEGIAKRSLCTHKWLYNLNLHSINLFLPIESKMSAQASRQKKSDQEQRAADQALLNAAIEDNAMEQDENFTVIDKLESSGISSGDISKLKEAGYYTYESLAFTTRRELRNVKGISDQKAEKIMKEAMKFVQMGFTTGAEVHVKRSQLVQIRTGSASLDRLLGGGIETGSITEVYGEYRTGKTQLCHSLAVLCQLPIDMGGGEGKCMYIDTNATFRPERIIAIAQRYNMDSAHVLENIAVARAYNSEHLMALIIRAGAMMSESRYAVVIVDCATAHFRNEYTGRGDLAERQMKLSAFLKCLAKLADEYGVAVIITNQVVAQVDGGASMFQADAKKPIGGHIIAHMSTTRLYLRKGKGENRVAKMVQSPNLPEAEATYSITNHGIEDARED

Row | Sequence | binding result [1] | binding result [2] | binding result [3]
1 | TTTTTTTTTTTTTTTTTTTTCTTGACAAGCTTGCGCACT [ss39] | binds | binds | –
2 | TTTTTTTTTTTTTTTTTTTTTTTTTTTTTTTTTTTTTTT [poly(dT)39] | – | – | binds

Reference: paper doi:10.1101/2025.11.17.685403
